Reference: paper PMC9440255
These are yes or no findings as the source states them, for the method shown. In cells and extracts the contact can be indirect. Some results given as binding are weak or reduced against the parent protein; the word gives no strength. For part of these data: Tags and fused reporters may be left off the sequences shown. Each block holds one molecule with its values, some of them ahead of it.

Sequences of proteins named here, by UniProt entry; tags and fusion partners are left off.
UniProt O15105: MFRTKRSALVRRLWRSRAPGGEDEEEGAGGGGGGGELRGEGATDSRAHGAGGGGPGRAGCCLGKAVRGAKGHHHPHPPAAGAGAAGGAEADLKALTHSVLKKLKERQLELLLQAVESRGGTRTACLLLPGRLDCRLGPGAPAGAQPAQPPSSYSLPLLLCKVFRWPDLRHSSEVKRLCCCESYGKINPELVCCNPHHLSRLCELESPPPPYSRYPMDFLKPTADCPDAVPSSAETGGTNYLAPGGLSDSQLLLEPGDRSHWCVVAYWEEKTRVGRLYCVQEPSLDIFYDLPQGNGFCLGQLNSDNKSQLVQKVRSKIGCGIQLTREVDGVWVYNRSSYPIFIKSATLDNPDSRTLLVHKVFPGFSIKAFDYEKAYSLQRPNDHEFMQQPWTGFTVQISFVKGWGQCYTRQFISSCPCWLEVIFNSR
UniProt O35253: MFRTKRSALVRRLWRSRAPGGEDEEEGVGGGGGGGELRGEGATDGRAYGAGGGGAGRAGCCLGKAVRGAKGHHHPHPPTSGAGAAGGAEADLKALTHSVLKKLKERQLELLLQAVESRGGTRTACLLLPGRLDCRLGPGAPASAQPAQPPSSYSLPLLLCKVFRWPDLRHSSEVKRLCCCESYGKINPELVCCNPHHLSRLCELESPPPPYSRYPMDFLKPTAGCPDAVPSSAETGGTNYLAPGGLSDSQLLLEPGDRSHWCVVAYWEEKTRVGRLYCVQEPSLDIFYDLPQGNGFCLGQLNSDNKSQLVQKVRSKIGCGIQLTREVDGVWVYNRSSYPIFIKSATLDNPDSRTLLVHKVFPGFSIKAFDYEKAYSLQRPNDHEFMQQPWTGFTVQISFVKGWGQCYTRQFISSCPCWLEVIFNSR
UniProt Q9HAU4: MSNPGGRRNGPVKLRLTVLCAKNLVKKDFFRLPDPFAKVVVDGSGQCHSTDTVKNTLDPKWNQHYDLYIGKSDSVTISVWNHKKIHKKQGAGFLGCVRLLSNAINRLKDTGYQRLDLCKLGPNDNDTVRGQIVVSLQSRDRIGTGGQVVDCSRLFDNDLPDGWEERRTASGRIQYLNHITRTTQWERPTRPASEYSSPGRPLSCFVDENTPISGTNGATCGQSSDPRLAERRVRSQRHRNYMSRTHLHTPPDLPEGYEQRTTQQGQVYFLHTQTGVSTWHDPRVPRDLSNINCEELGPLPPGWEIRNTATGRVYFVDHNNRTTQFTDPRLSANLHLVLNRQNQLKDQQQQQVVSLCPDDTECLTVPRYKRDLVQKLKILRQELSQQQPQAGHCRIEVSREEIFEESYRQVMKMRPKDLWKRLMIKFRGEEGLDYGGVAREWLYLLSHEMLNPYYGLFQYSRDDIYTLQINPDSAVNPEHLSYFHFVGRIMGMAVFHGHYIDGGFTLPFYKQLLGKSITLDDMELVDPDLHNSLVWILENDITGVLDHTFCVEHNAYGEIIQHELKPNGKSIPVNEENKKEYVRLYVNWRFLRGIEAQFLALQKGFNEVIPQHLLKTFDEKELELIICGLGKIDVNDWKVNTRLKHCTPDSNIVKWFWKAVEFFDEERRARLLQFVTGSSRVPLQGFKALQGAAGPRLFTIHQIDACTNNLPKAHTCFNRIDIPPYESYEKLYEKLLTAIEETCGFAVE

Tests used:
SMAD7-HA [1] = target: SMAD7-HA (UniProt O15105); test: co-IP; HEK293T cells transfected with SMAD7-HA, Myc-SMURF2 and different amounts of PROM1-FLAG (0, 2 and 4 µg); immunoprecipitation and immunoblotting
[2] = target: SMAD7, endogenous in mouse liver (mouse (endogenous in liver)) (UniProt O35253); test: co-IP; reciprocal endogenous immunoprecipitation from livers of mice subjected to BDL for 1 week; lysates (500 µg of protein) incubated with specific antibodies overnight, then Protein A- or Protein G-agarose beads for 3 h; immunoblotting
SMAD7-HA [3] = target: SMAD7-HA (UniProt O15105); test: co-IP; HEK293T cells transfected with PROM1-FLAG and SMAD7-HA or their truncated mutants; whole-cell lysates (500 µg of protein) incubated with specific antibodies overnight, then Protein A- or Protein G-agarose beads for 3 h; immunoblotting

binding (SMAD7-HA [1]): binds
Molecule: Myc-SMURF2 (from UniProt Q9HAU4 1-748) (enzyme)

binding [2]: binds
B1: Prominin-1 (PROM1), endogenous in mouse liver (protein, UniProt O54990 20-867)
chain: EGQPAFHNTPGAMNYELPTTKYETQDTFNAGIVGPLYKMVHIFLSVVQPNDFPLDLIKKLIQNKKFDISVDSKEPEIIVLALKIALYEIGVLICAILGLLFIILMPLVGCFFCMCRCCNKCGGEMHQRQKQNAPCRRKCLGLSLLVICLLMSLGIIYGFVANQQTRTRIKGTQKLAKSNFRDFQTLLTETPKQIDYVVEQYTNTKNKAFSDLDGIGSVLGGRIKDQLKPKVTPVLEEIKAMATAIKQTKDALQNMSSSLKSLQDAATQLNTNLSSVRNSIENSLSSSDCTSDPASKICDSIRPSLSSLGSSLNSSQLPSVDRELNTVTEVDKTDLESLVKRGYTTIDEIPNTIQNQTVDVIKDVKNTLDSISSNIKDMSQSIPIEDMLLQVSHYLNNSNRYLNQELPKLEEYDSYWWLGGLIVCFLLTLIVTFFFLGLLCGVFGYDKHATPTRRGCVSNTGGIFLMAGVGFGFLFCWILMILVVLTFVVGANVEKLLCEPYENKKLLQVLDTPYLLKEQWQFYLSGMLFNNPDINMTFEQVYRDCKRGRGIYAAFQLENVVNVSDHFNIDQISENINTELENLNVNIDSIELLDNTGRKSLEDFAHSGIDTIDYSTYLKETEKSPTEVNLLTFASTLEAKANQLPEGKPKQAFLLDVQNIRAIHQHLLPPVQQSLNTLRQSVWTLQQTSNKLPEKVKKILASLDSVQHFLTNNVSLIVIGETKKFGKTILGYFEHYLHWVFYAITEKMTSCKPMATAMDSAVNGILCGYVADPLNLFWFGIGKATVLLLPAVIIAIKLAKYYRRMDSEDVYDDVETVPMKNLEIGSNGYHKDHLYGVHNPVMTSPSRY

binding (SMAD7-HA [3]): binds
B2: PROM1-FLAG (protein, UniProt O43490 20-865)
chain: GGQPSSTDAPKAWNYELPATNYETQDSHKAGPIGILFELVHIFLYVVQPRDFPEDTLRKFLQKAYESKIDYDKPETVILGLKIVYYEAGIILCCVLGLLFIILMPLVGYFFCMCRCCNKCGGEMHQRQKENGPFLRKCFAISLLVICIIISIGIFYGFVANHQVRTRIKRSRKLADSNFKDLRTLLNETPEQIKYILAQYNTTKDKAFTDLNSINSVLGGGILDRLRPNIIPVLDEIKSMATAIKETKEALENMNSTLKSLHQQSTQLSSSLTSVKTSLRSSLNDPLCLVHPSSETCNSIRLSLSQLNSNPELRQLPPVDAELDNVNNVLRTDLDGLVQQGYQSLNDIPDRVQRQTTTVVAGIKRVLNSIGSDIDNVTQRLPIQDILSAFSVYVNNTESYIHRNLPTLEEYDSYWWLGGLVICSLLTLIVIFYYLGLLCGVCGYDRHATPTTRGCVSNTGGVFLMVGVGLSFLFCWILMIIVVLTFVFGANVEKLICEPYTSKELFRVLDTPYLLNEDWEYYLSGKLFNKSKMKLTFEQVYSDCKKNRGTYGTLHLQNSFNISEHLNINEHTGSISSELESLKVNLNIFLLGAAGRKNLQDFAACGIDRMNYDSYLAQTGKSPAGVNLLSFAYDLEAKANSLPPGNLRNSLKRDAQTIKTIHQQRVLPIEQSLSTLYQSVKILQRTGNGLLERVTRILASLDFAQNFITNNTSSVIIEETKKYGRTIIGYFEHYLQWIEFSISEKVASCKPVATALDTAVDVFLCSYIIDPLNLFWFGIGKATVFLLPALIFAVKLAKYYRRMDSEDVYDDVETIPMKNMENGNNGYHKDHVYGIHNPVMTSPSQH
